Measurements published in patent EP1007549B1, “COMPOSITIONS AND METHODS FOR HIGHLY EFFICIENT TRANSFECTION” (Innovata Plc, priority 1997, dated 2006).
At least one peptide structure holds a part that was inferred or is arguable (an end, a ring closure or a residue).

Legend:
[1] = test system: human dendritic cells; assay: Transfection of human dendritic cells with pEGFP-N1, count of fluorescent positive cells; type: cell-based
[2] = test system: KLN 205 cells; assay: Transfection of KLN 205 cells, luminescence and X-gal; type: cell-based, mouse; conditions: Fig. 20

In the case of `CC[C@H](C)[C@H](NC(=O)[C@H](CC(N)=O)NC(=O)[C@H](CSSC[C@H](NC(=O)[C@H](CCSC)NC(=O)[C@H](CCCNC(=N)N)NC(=O)[C@H](CCC(=O)O)NC(=O)[C@H](Cc1ccc(O)cc1)NC(=O)[C@H](C)NC(=O)[C@H](CO)NC(=O)[C@H](CCCNC(=N)N)NC(=O)[C@@H](NC(=O)[C@H](CCCCN)NC(=O)[C@H](CCCNC(=N)N)NC(=O)CNC(=O)[C@H](CC(N)=O)NC(=O)[C@H](CCC(=O)O)NC(=O)CNC(=O)[C@H](CCCNC(=N)N)NC(=O)[C@H](Cc1c[nH]c2ccccc12)NC(=O)[C@H](Cc1ccccc1)NC(=O)CNC(=O)[C@H](CC(C)C)NC(=O)[C@H](Cc1ccccc1)NC(=O)CNC(=O)CNC(=O)[C@H](CCCCN)NC(=O)[C@H](CCCCN)NC(=O)[C@H](CCCCN)NC(=O)[C@H](CCCCN)NC(=O)[C@H](CCCCN)NC(=O)[C@@H](N)CCCCN)[C@@H](C)O)C(=O)N[C@@H](CC(N)=O)C(=O)N[C@H](C(=O)N[C@@H](CC(C)C)C(=O)N[C@@H](CCCCN)C(=O)NCC(=O)N[C@@H](CCCCN)C(=O)O)[C@@H](C)CC)NC(=O)[C@H](CCSC)NC(=O)[C@H](CCCNC(=N)N)NC(=O)[C@H](CCC(=O)O)NC(=O)[C@H](Cc1ccc(O)cc1)NC(=O)[C@H](C)NC(=O)[C@H](CO)NC(=O)[C@H](CCCNC(=N)N)NC(=O)[C@@H](NC(=O)[C@H](CCCCN)NC(=O)[C@H](CCCNC(=N)N)NC(=O)CNC(=O)[C@H](CC(N)=O)NC(=O)[C@H](CCC(=O)O)NC(=O)CNC(=O)[C@H](CCCNC(=N)N)NC(=O)[C@H](Cc1c[nH]c2ccccc12)NC(=O)[C@H](Cc1ccccc1)NC(=O)CNC(=O)[C@H](CC(C)C)NC(=O)[C@H](Cc1ccccc1)NC(=O)CNC(=O)CNC(=O)[C@H](CCCCN)NC(=O)[C@H](CCCCN)NC(=O)[C@H](CCCCN)NC(=O)[C@H](CCCCN)NC(=O)[C@H](CCCCN)NC(=O)[C@@H](N)CCCCN)[C@@H](C)O)C(=O)N[C@@H](CC(C)C)C(=O)N[C@@H](CCCCN)C(=O)NCC(=O)N[C@@H](CCCCN)C(=O)O` [K6CL22 dimer], the “transfection efficiency, dimer versus monomer” value ([1]; in the presence or absence of FCS) is reported as “higher efficiency”, the “effect of FCS on transfection efficiency” value ([1]; presence of FCS compared to absence of FCS) is reported as “greatly reduced” and the “efficiency of transfection, oxidized versus reduced/alkylated peptide” value [2] is reported as “significantly higher efficiency of transfection than the reduced/alkylated form”.
